In US12631623B2, “Heart tissue model” (IMBA—INSTITUT FÜR MOLEKULARE BIOTECHNOLOGIE GMBH, priority 2020, dated 2026):
“Also recorded” adds a separate entry of the source. At least one structure is not confirmed: it was looked up by name or label, or the drawing left a doubt.

Tested on: cardiac organoids (hPSC-derived)
Assay: Reporter imaging / immunostaining of cardiomyocyte and endothelial cell organisation in cardiac organoids
Format: cell-based, human
Protocol: Immunostaining—Following fixation with 4% PFA (Sigma-Aldrich, #16005) specimens were washed twice in 1×PBS and the 3D constructs additionally once in PBS/Tween20 (0.1%, Sigma-Aldrich, #P1379) for at least 15 min each. Tissues were incubated in blocking solution consisting of PBS (Gibco, #14190094) with 4% goat (Bio-Rad Laboratories, #C07SA) or donkey serum (Bio-Rad Laboratories, #C06SB) and 0.2% Triton X-100 (Sigma-Aldrich, #T8787) for at least 15 minutes. The primary antibody was subsequently applied in above blocking buffer for 1-3 hours at room temperature or overnight at 4° C. in the case of the 2D samples and 2 days at 4° C. on a shaker for 3D samples. Following washing twice with PBS/Tween20, 3D tissues were incubated with the secondary antibody solution at 4° C. on a shaker for 2 more days while 2D samples were incubated up to 2 hours at room temperature. Following these washing steps and an additional PBS wash, tissues were ready for analysis or storage at 4° C. in PBS, while slides were mounted using fluorescence mounting medium (Dako Agilent Pathology Solutions, #S3023). 3D tissues were cleared with FocusClear (CellExplorer Labs, #FC-101) prior to imaging.
Image acquisition and analysis—Fixed whole mounts and sections were imaged with point scanning (upright Zeiss LSM800 Axio Imager with an Apochromat 20× objective lens at 1× magnification) and spinning disk confocal microscopes (Olympus spinning disk system based on a IX3 Series (IX83) inverted microscope, equipped with a Yokogawa W1 spinning disc), or a widefield microscope (Zeiss Axio Imager 2, Axio Vert A1, Panoramic FLASH 250 II System). Live imaging experiments were performed using a Zeiss Celldiscoverer 7 or above-mentioned spinning disk microscope. For high-throughput imaging and analysis, images were taken with a Celigo Imaging Cytometer microscope (Nexcelom Biosciences, LLC) and analyzed with custom-made scripts written for the FIJI software. Sections for transmission electron microscopy were examined with aFEI Morgagni 268D TEM (FEI, Eindhoven, The Netherlands) operated at 80 kV. […]

Compound: CCN(CC)CCNC(=O)c1c(C)[nH]c(/C=C2\C(=O)Nc3ccc(F)cc32)c1C [Sunitinib]
- CDH5-Tomato expression (images) (Sunitinib 100 nM): absence of CDH5-Tomato expression
- MYL7-GFP expression (images) (Sunitinib 100 nM vs standard protocol): more homogenous MYL7-GFP expression
- cavity (lumen) formation (Sunitinib 100 nM, VEGF-driven EC differentiation inhibited, d7.5): Cavity formation in cardioids (d7.5) happens in the absence of endothelial cells; also recorded: Lumen formation also occurred
